Article PMC8950334
These are yes or no findings as the source states them, for the method shown. A result given as binding can be weak or reduced; the word gives no strength.

Target: TaERF-6-3A (wheat (variety JW1))
Test: two-hybrid; point-to-point yeast two-hybrid; pGBKT7-TaERF-6-3A as bait, pGBKAD-AtCIPK22 as prey; grown on SD/-Trp/-Leu and SD/-Trp/-Leu/-His/-Ade/+X-alpha-Gal, read after 2 to 3 days

binding: binds
B1: calcineurin B-like interacting protein kinase 22 (AtCIPK22) (protein, UniProt O80902 1-431)
chain: MAEDSNSSESIIVNVTGDDNKSALFGKYDLGKLLGSGAFAKVYQAEDLQNGGESVAIKVVQKKRLKDGLTAHVKREISVMRRLRHPHIVLLSEVLATKTKIYFVMELAKGGELFSRVTSNRFTESLSRKYFRQLISAVRYCHARGVFHRDLKPENLLLDENRDLKVSDFGLSAMKEQIHPDGMLHTLCGTPAYVAPELLLKKGYDGSKADIWSCGVVLFLLNAGYLPFRDPNIMGLYRKIHKAQYKLPDWTSSDLRKLLRRLLEPNPELRITVEEILKDPWFNHGVDPSEIIGIQADDYDLEENGKILNAFDLISSASSSNLSGLFGNFVTPDHCDQFVSDESTAVIMRKVEEVAKQLNLRIAKKKERAIKLEGPHGVANVVVKVRRLTNELVMVEMKNKQRDVGLVWADALRQKLRRLINQPVYKVPDKP
